Test results reported in PubChem BioAssay AID2685 (National Center for Advancing Translational Sciences (NCATS), 2010).
Some of the results follow. The main result of the screen is listed elsewhere. These columns were measured beside it and carry no call. Most of these compounds were active or inconclusive in the main read-out, so they are no random draw. The note in brackets gives the kind of curve behind each potency; many fits are weak.

Experiment: qHTS Assay for Lipid Storage Modulators in Drosophila S3 Cells;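 for cell number change: cells counted by Cell Tracker Red CMTPX staining in the red channel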
Conditions: BODIPY lipid droplet fluorescence, 18-24 h; for cell number change: measured here: cell count max response, cells fed with added oleic acid
In short: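 Drosophila S3 cells loaded with oleic acid (400 uM, as added) and compounds at several concentrations; lipid droplets imaged by 488-nm laser-scanning cytometry, 500–530 nm intensity and object ratio to cell channel. Percent activity normalized to 20 uM Triacsin C.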

[1] = measured here: cell number channel AC50, cells fed with added oleic acid
[2] = measured here: lipid fluorescence (Fed channel) AC50, cells fed with added oleic acid

Row | Compound | cell number change [%] | AC50 [1] | AC50 [2]
1 | CC(=O)c1ccc(OCC(O)CN2CCOCC2)cc1 (centres undefined) | 37.2 | 7.31 µM [rising, single point] | 6.51 µM [rising, partial curve, poor fit]
2 | COC(=O)c1sc(OC)cc1OCc1ccc(C)cc1 | 42.8 | 20.6 µM [rising, single point] | 20.6 µM [rising, partial curve]
3 | COc1ccc(Nc2ncc(C(=O)O)c3ccccc23)cc1 | 15.3 | – | 0.259 µM [falling, full curve, poor fit]
4 | C=CCN(C)CC/C=C1\c2ccccc2CSc2ccccc21 | -33.2 | 23.1 µM [falling, single point] | 29.1 µM [falling, single point]
5 | O=C(c1c(F)cccc1F)N1CCCC(c2nc(-c3cccs3)no2)C1 (centres undefined) | 5.65 | – | 29.1 µM [falling, single point]
6 | O=[N+]([O-])c1ccc(Sc2ccc(Cl)c(Cl)c2)nc1 | 82.6 | 29.1 µM [rising, single point] | –
7 | COc1cc(NC(=O)CCC(=O)OCCCC(F)(F)C(F)(F)F)nc(OC)n1 | -44.2 | 25.9 µM [falling, partial curve] | 11.6 µM [falling, partial curve]
8 | O=C(NC(Cc1ccccc1)C(=O)O)/C(=C\c1ccc(Cl)cc1)NC(=O)c1ccccc1 (centres undefined) | -0.319 | – | 0.184 µM [falling, full curve, poor fit]
9 | CCOC(=O)CSc1nc2ccc(C)cc2n2cnnc12 | 18.5 | – | –
10 | Cn1c(CNc2ccc(F)cc2)nc2ccccc21 | -9.52 | – | 0.116 µM [rising, full curve, poor fit]
11 | O=S(=O)(N[C@H]1C[C@@H](NS(=O)(=O)OCC(Cl)(Cl)Cl)C2CCCCC21)OCC(Cl)(Cl)Cl (some centres undefined) | -38 | 29.1 µM [falling, single point] | –
12 | COc1ccc(CN(C)Cc2nc(Cc3cccc(F)c3)no2)c2cccnc12 | – | – | 29.1 µM [falling, single point]
13 | COc1ccc(N2CCN(C(=O)COC(=O)Cc3cccc(OC)c3)CC2)cc1 | -16.1 | – | –
14 | Cc1ccc2[nH]c(=O)c(CN(Cc3ccc4c(c3)OCO4)Cc3nnnn3Cc3ccco3)cc2c1 | – | 0.326 µM [rising, partial curve, poor fit] | –
15 | CCOC(=O)C(Sc1cc(C)nc(N)n1)C(C)=O (centres undefined) | 23 | – | 0.164 µM [falling, full curve]
16 | COc1ccc(NC(=S)NC(=O)c2cc3ccccc3o2)c(OC)c1 | -4.34 | – | 0.206 µM [rising, full curve, poor fit]
17 | Cc1ccc(CCNC(=O)CS(=O)Cc2nc(-c3cccc(C)c3)oc2C)cc1 (centres undefined) | -0.465 | – | 5.8 µM [rising, partial curve]
18 | CCOC(=O)c1ccc(N2C(=O)CC(Nc3ccc(CCO)cc3)C2=O)cc1 (centres undefined) | -5.52 | – | 18.4 µM [falling, single point]
19 | NC(=O)CSc1ccc(-c2ccc(F)cc2)nn1 | 75.7 | – | 5.8 µM [falling, single point]

Part of the list above, field by field:
COc1ccc(CN(C)Cc2nc(Cc3cccc(F)c3)no2)c2cccnc12
  AC50 [2]: 29.1 µM [falling, single point]
COc1ccc(N2CCN(C(=O)COC(=O)Cc3cccc(OC)c3)CC2)cc1
  cell number change [%]: -16.1
Cc1ccc2[nH]c(=O)c(CN(Cc3ccc4c(c3)OCO4)Cc3nnnn3Cc3ccco3)cc2c1
  AC50 [1]: 0.326 µM [rising, partial curve, poor fit]

Additional compounds.

Row | Compound | cell number change [%] | AC50 [1] | AC50 [2]
20 | Cc1cc(NC(=O)CSCC(=O)N2CCN(c3cccc(C(F)(F)F)c3)CC2)no1 | – | 0.651 µM [falling, partial curve, poor fit] | –
21 | Cc1nn(-c2ccccc2)c(C)c1C(=O)OCC(=O)Nc1ccccc1 | 23.7 | – | 29.1 µM [rising, partial curve, poor fit]
22 | O=C(c1ccc2ccccc2c1)N1CCN(c2ccc(C(F)(F)F)cn2)CC1 | 1.08 | 6.51 µM [rising, single point] | 0.058 µM [rising, full curve, poor fit]
23 | CCn1c(SCc2ccc(F)cc2)nnc1C1CCN(S(=O)(=O)c2ccc(OC)cc2)CC1 | 15 | – | 29.1 µM [falling, single point]
24 | O=[N+]([O-])c1cccc(N/N=C/c2cc([N+](=O)[O-])ccc2O)c1 | 44.5 | 0.231 µM [rising, full curve] | –
25 | CCN(CC)S(=O)(=O)c1ccc(C)c(NC(=O)COC(=O)CN2C(=O)NC(C)(C)C2=O)c1 | – | – | 1.84 µM [rising, partial curve]
26 | Nc1nonc1C(=O)NCCNCc1cc(Br)ccc1OCc1ccc(F)cc1 | -26.8 | – | 20.6 µM [falling, single point]
27 | COc1ccc(NC(=O)c2sccc2C)c([N+](=O)[O-])c1 | 1.9 | – | 2.31 µM [falling, single point]
28 | COc1ccc(CN2C(=O)c3ccccc3C2=O)cc1C(=O)OCC(=O)NC1CCCCC1 | 20.3 | 6.51 µM [rising, single point] | 0.731 µM [rising, full curve]
29 | O=C1NC(=Nc2ccc(Cl)cc2)/C(=C/c2ccco2)S1 | -16.7 | 6.51 µM [rising, single point] | –
30 | Cc1cn([C@H](C(=O)NCCCCCCCCCCC(=O)N2CCN(C(=O)OC(C)(C)C)CC2)[C@@H](C)O)nn1 | 9.11 | – | 16.4 µM [falling, single point]
31 | CCOc1ccccc1N1CC(C(=O)NNC(=O)c2cc(OC)c(OC)c(OC)c2)CC1=O (centres undefined) | -5.71 | – | 0.291 µM [rising, full curve]
32 | CN(CC(=O)Nc1ccc(F)cc1)C(=O)c1cn(-c2ccccc2)nc1-c1cccs1 | -33.4 | 29.1 µM [falling, single point] | 2.06 µM [falling, partial curve]
33 | CCOCCCNC(=O)C1CCCCN1S(=O)(=O)c1ccc(F)cc1 (centres undefined) | 5.27 | – | 6.51 µM [falling, single point]
34 | COc1cccc(OC)c1OC(=O)c1cnccn1 | -20 | – | –
35 | O=C(CSc1nnc2sc3ccccc3n12)c1ccco1 | – | – | 6.51 µM [falling, single point]
36 | CCS(=O)CCSC(=N)N (centres undefined) | 36.6 | 29.1 µM [rising, single point] | 29.1 µM [rising, single point]
37 | O=C(c1ccc(Br)cc1)N1CCCC1 | 14.4 | 1.16 µM [rising, partial curve] | –
